According to PubChem BioAssay AID445 (National Center for Advancing Translational Sciences (NCATS), 2006):
This is one part of the list. Further columns of the screen follow, without active or inactive calls. Most of these compounds were active or inconclusive in the main read-out, so they are no random draw. Potencies come from curve fits of mixed quality, noted in brackets.

Assay: IkB Signaling
Conditions: ABC-DLBCL IkBa-CBG/CBR dual luciferase ratio (green luciferase fused to IkBa over red control in OCI-Ly3 lymphoma cells), 4 h
How it was run: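 In this assay, an IκBα–CBG68 fusion accumulates when IKK-driven degradation is blocked; native CBR normalizes for cell number. OCI-Ly3 cells were treated 4 h with compound and doxycycline, then green and red light read after Chroma-Glo addition.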

[1] = measured here: control luc red channel unless noted
[2] = measured here: IkB-luc green channel
[3] = measured here: control luc red channel

CCCn1c(=O)n(-c2ccccc2)c(=O)c2sc3ccccc3c21
AC50 [1]: 3.98 µM [rising, partial curve]

CCOc1ccc(CCNC(=O)CN2CCN(Cc3ccc(F)cc3Cl)C2=O)cc1OCC
AC50 [1]: 25.1 µM [falling, single point]

CCCOc1ccccc1C(=O)N1CCC(c2nc3ccccc3s2)CC1
AC50 [1]: 31.6 µM [falling, partial curve]

COC(=O)CN1C(=O)CSc2ccc(S(=O)(=O)Nc3ccc(Cl)cc3C)cc21
AC50 [1]: 20 µM [falling, partial curve]

CC(C)Cc1nn2c(=O)cc(COC(=O)c3cccc(NC(=O)CCc4ccccc4)c3)nc2s1
AC50 [1]: 7.94 µM [falling, partial curve]

Cc1ccc2ccc(C(Nc3ccccn3)c3ccccc3)c(O)c2n1 (stereo not given)
AC50 [2]: 3.98 µM [rising, single point] | AC50 [3]: 39.8 µM [falling, single point]

Cc1ccc(CCNC(=O)C2CCCN(Cc3nc(-c4cccc(Cl)c4)oc3C)C2)cc1 (stereo not given)
AC50 [1]: 25.1 µM [falling, partial curve]

O=C(Cc1ccc(F)cc1)N1CCC(c2nc3c(nnn3Cc3ccc(Cl)cc3)c(=O)[nH]2)CC1
AC50 [1]: 31.6 µM [falling, single point]

COc1ccccc1S(=O)(=O)Cc1ccc(C(=O)N2CCN(c3ccc(C)cc3)C(C)C2)o1 (stereo not given)
AC50 [1]: 12.6 µM [falling, partial curve]

COc1ccc(-c2noc(C3CC(=O)N(c4cc(C)cc(C)c4)C3)n2)cc1 (stereo not given)
AC50 [1]: 10 µM [falling, partial curve]

Cc1ccc2nc(-c3ccccn3)c(Nc3ccc(F)cc3)n2c1
AC50 [1]: 25.1 µM [falling, partial curve]

COC(=O)c1sccc1NC(=O)CN1CCN(c2ccc(F)cc2)CC1
AC50 [1]: 20 µM [falling, partial curve]

CCOC(=O)C1CCCN(c2ncnc3c2cnn3-c2ccc(C)c(Cl)c2)C1 (stereo not given)
AC50 [1]: 25.1 µM [falling, single point]

Cc1ccc(OCC(=O)Nc2ccc3c(c2)nc(CCN2CCOCC2)n3C)cc1
AC50 [1]: 7.94 µM [falling, partial curve]

CCOC(=O)c1ccc(NC(=O)c2oc3ccc4c(c3c2C)C(=O)CC(C)(CC)O4)cc1 (stereo not given)
AC50 [1]: 0.398 µM [falling, full curve]

Cn1c(=O)c2c(SCC(=O)NCc3ccco3)nc(-c3ccccc3Cl)nc2n(C)c1=O
AC50 [1]: 2 µM [falling, full curve]

Cc1ccc(S(=O)(=O)N=C2SCCCS2)cc1
AC50 [2]: 25.1 µM [rising, partial curve] | AC50 [3]: 39.8 µM [rising, single point]

O=C(NC(O)C(=O)c1ccccc1)c1cccs1 (stereo not given)
AC50 [1]: 25.1 µM [falling, partial curve]

CCc1ccccc1NC(=O)c1cc(S(=O)(=O)NCCc2ccc(OC)c(OC)c2)ccc1F
AC50 [1]: 6.31 µM [rising, single point]

COC(=O)c1cccc(NC(=O)Cc2coc3cc(OC)ccc23)c1
AC50 [1]: 15.8 µM [falling, partial curve]

O=C(CCCCCn1c(SCC(=O)c2ccccc2)nc2ccccc2c1=O)NCc1ccco1
AC50 [1]: 2.51 µM [falling, full curve, poor fit]

CCOc1ccc(NC(=O)C(C)Sc2nnc3cc(C)c4ccccc4n23)cc1 (stereo not given)
AC50 [1]: 15.8 µM [falling, single point]

COc1cccc(-c2nn(C)c3sc(C(=O)NCc4ccc5c(c4)OCO5)cc23)c1
AC50 [1]: 1.26 µM [falling, partial curve]

CCCC(=O)c1c(C)c2ccccc2n1C
AC50 [1]: 15.8 µM [rising, partial curve]

Cc1cccc(NC(=O)C(=O)NCC(c2cccnc2)N2CCOCC2)c1 (stereo not given)
AC50 [1]: 20 µM [falling, partial curve]

Cc1ccc(N2CCN(c3ccc(C)cc3)C2c2ccncc2)cc1
AC50 [1]: 25.1 µM [falling, partial curve]

CC(C)CCNC(=O)c1cccc(Nc2nc3ccccc3n3nnnc23)c1
AC50 [1]: 31.6 µM [falling, single point]

COc1ccc(Cl)cc1NC(=O)c1ccc2nc(Cc3ccccc3)oc2c1
AC50 [1]: 5.01 µM [falling, full curve, poor fit]

COC(=O)c1ccccc1NC(=O)CN1CCC(C(=O)c2ccc3c(c2)OCCO3)CC1
AC50 [2]: 2.51 µM [falling, partial curve, poor fit] | AC50 [3]: 7.94 µM [falling, partial curve]

Cc1ccc(Cl)cc1N1CCN(C(=O)C2CCN(S(=O)(=O)c3c(C)nn(C)c3C)CC2)CC1
AC50 [1]: 7.94 µM [falling, partial curve]

CCCCNC(=O)C1CCCN(Cc2nc(-c3ccc(Cl)cc3)oc2C)C1 (stereo not given)
AC50 [1]: 20 µM [falling, partial curve]

CCc1ccc(C(=O)c2cn(CC(=O)Nc3ccc(F)c(F)c3)c3cc(OC)c(OC)cc3c2=O)cc1
AC50 [1]: 3.16 µM [falling, partial curve]

CCOc1cccc2cc(-c3nc(-c4ccccc4C)no3)c(=O)oc12
AC50 [1]: 2 µM [falling, full curve]

O=C(Nc1ccc(Cl)cc1)C1CCCN(S(=O)(=O)c2ccc3[nH]c(=O)ccc3c2)C1 (stereo not given)
AC50 [1]: 20 µM [falling, partial curve]

CCOC(=O)c1ccccc1NC(=O)CSc1cn(CC(=O)N2CCCCC2)c2ccccc12
AC50 [1]: 2.51 µM [falling, full curve]

Cc1nc2c(-c3ccccc3)c(C)nn2c(C)c1CCC(=O)NC(C)c1ccccc1 (stereo not given)
AC50 [1]: 39.8 µM [falling, single point]

COc1cccc(CNC(=O)C2CCCN(S(=O)(=O)c3ccc4c(ccn4C)c3)C2)c1 (stereo not given)
AC50 [1]: 1 µM [falling, full curve]

CCOC(=O)c1cccc(NC(=O)c2oc3c(c2C)-c2[nH]ncc2CC3)c1
AC50 [1]: 10 µM [falling, partial curve]

CCCN(C(=O)c1cc2c(s1)-c1ccccc1OC2)c1ccccc1F
AC50 [1]: 1.26 µM [falling, full curve]

CCOc1ccc(NC(=O)C(=O)NCCc2csc(-c3ccc(F)cc3)n2)cc1
AC50 [1]: 0.00631 µM [falling, full curve, poor fit]

Cn1cc(S(=O)(=O)N2CCCCCC2)cc1C(=O)N1CCN(c2ccc(F)cc2)CC1
AC50 [1]: 25.1 µM [falling, partial curve, poor fit]

Cc1cccc(CNC(=O)c2oc3c(c2C)-c2nn(Cc4ccccc4Cl)cc2CC3)c1
AC50 [1]: 20 µM [falling, partial curve]

Cc1ccc(NCc2nnc(SCC(=O)OC3CCCCC3)o2)c(C)c1
AC50 [1]: 25.1 µM [falling, partial curve]

Cc1cc(OCC(=O)Nc2ccc(-c3nc4cc(Cl)ccc4o3)cc2)cc(C)c1Cl
AC50 [1]: 25.1 µM [rising, partial curve, poor fit]

O=C(COc1ccccc1)NCc1ccc2c(c1)CCN2C(=O)c1ccc(F)cc1
AC50 [1]: 15.8 µM [falling, partial curve]

O=C(Nc1ccccc1N1CCCC1)c1cc2ccccc2o1
AC50 [1]: 25.1 µM [falling, partial curve]

Cc1ccc(Cn2c(=O)c3cccnc3n(CC(=O)Nc3cccc(C(F)(F)F)c3)c2=O)cc1
AC50 [1]: 0.158 µM [falling, full curve, poor fit]

COc1ccc(CCNC(=O)c2cc3c(-c4ccccc4F)nn(C)c3s2)c(OC)c1
AC50 [1]: 25.1 µM [falling, partial curve]

COc1ccc(NC(=O)c2cc3c(s2)-c2c(C)cccc2OC3)c(OC)c1
AC50 [1]: 12.6 µM [falling, partial curve]

CCCCNc1nc(Oc2ccc(=O)[nH]n2)nc(N(C)C)n1
AC50 [1]: 6.31 µM [rising, single point]

CCOC(=O)c1cccc(NC(=O)c2cc3c(=O)n(Cc4ccccc4)ccc3nc2C)c1
AC50 [1]: 15.8 µM [falling, partial curve]

COc1ccccc1-c1noc(-c2ccc(N3CCC(C)CC3)c([N+](=O)[O-])c2)n1
AC50 [1]: 20 µM [falling, partial curve]

COc1cc(C(=O)Nc2cc3c(cc2C)n(C)c(=O)c(=O)n3C)cc(OC)c1OC
AC50 [1]: 20 µM [falling, partial curve]

CCOC(=O)C1CCCN(c2ncnc3c2cnn3-c2ccc(Cl)cc2)C1 (stereo not given)
AC50 [1]: 15.8 µM [falling, partial curve]

CCC(=O)N1CCc2cc(S(=O)(=O)NC(Cc3ccccc3)C(=O)Nc3ccc(C)cc3)ccc21 (stereo not given)
AC50 [1]: 12.6 µM [falling, partial curve, poor fit]

O=C(Nc1ccc(-c2cn3ccsc3n2)cc1)C1COc2ccccc2O1 (stereo not given)
AC50 [1]: 20 µM [falling, partial curve]

CCOc1ccc(-n2c(SCc3ccc(C(=O)OC)o3)nc3c([nH]c4ccccc43)c2=O)cc1
AC50 [1]: 1 µM [rising, single point]

CCN1C(=O)c2ccccc2Sc2ccc(NC(C)=O)cc21
AC50 [1]: 7.94 µM [falling, full curve, poor fit]

CCOC(=O)COc1ccc(-c2nnc(-c3ccccc3)o2)cc1
AC50 [1]: 3.16 µM [falling, single point]

CC1=C(C(=O)OC2CCCCCC2)C(c2c(F)cccc2Cl)CC(=O)N1 (stereo not given)
AC50 [1]: 25.1 µM [falling, partial curve]

CCOC(=O)Cn1c(=O)oc2cc(S(=O)(=O)Nc3cccc(C)c3)ccc21
AC50 [1]: 25.1 µM [falling, partial curve]

COc1ccc(N(Cc2cccs2)C(=O)COc2cccc(Cl)c2)cc1
AC50 [1]: 12.6 µM [falling, partial curve]
